PubChem BioAssay AID1259308 – NCATS – 2017

- Screen: 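Genes whose loss raises luciferase production in HEK293 cells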 (primary screen)
- Cells: human HEK293 embryonic kidney cells stably expressing firefly luciferase (HEK-CMV-Luc2-Hygro)
- Reagent: single siRNA against human genes, 0.8 pmol siRNA per well
- Duration: 72 h
- Measured: 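Luciferase light (ONE-Glo) measured on one replicate plate set and viability (CellTiter-Glo) on the other, scaled to a negative control siRNA, with robust z-scores and luciferase per cell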
- Direction: total luciferase, z-score and total luciferase, % of control: higher = more reporter protein produced; luciferase per cell, z-score: higher = more reporter output per viable cell; viable cells, % of control: higher = more viable cells
- Rule for the call: 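Active when the median/MAD z-score for overall luciferase is greater than 3; a gene was taken forward for validation with new siRNAs if at least two of its three siRNAs passed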
- Meaning of the calls: active = raised luciferase; inactive = no rise
Here is one part, drawn at random, of about 59,000 reagents. Of all reagents, about 1,510 (2.6%) got an active call. 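Calls use total luciferase alone and ignore viability, so some active siRNAs may act by altering cell number.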 Unmarked entries are inactive. The numbers tell different reagents against one gene apart.

no.	gene symbol	reagent	total luciferase, z-score	total luciferase, % of control	luciferase per cell, z-score	viable cells, % of control
1	USP5	1	2.02	122	1.14	101
2	USP5	2	0.491	91.7	0.128	99
3	USP5	3	4.34 (active)	168	3.09	83.3
4	KRTAP2-4	1	1.18	105	0.692	98
5	KRTAP2-4	2	-0.475	72.4	0.112	78.6
6	KRTAP2-4	3	-0.31	75.7	-0.348	92.7
7	RTL8B	1	-0.321	75.5	-0.764	103
8	RTL8B	2	1.3	108	1.85	74
9	RTL8B	3	-1.05	61.1	-1.63	105
10	GJA3	1	0.0563	83	0.236	87.2
11	GJA3	2	-0.903	63.9	-0.471	80.9
12	GJA3	3	-0.342	75.1	-0.524	96.3
13	TRAPPC10	1	0.234	86.5	-0.329	105
14	TRAPPC10	2	-0.496	72	-0.609	94.5
15	TRAPPC10	3	-1.39	54.2	-1.77	96.5
16	KIAA1217	1	-0.575	70.4	-0.684	94.3
17	KIAA1217	2	1.54	113	0.823	101
18	KIAA1217	3	-2.13	39.5	-1.85	71.7
19	SOSTDC1	1	0.897	99.7	0.553	96.3
20	SOSTDC1	2	0.379	89.4	0.772	81.5
21	SOSTDC1	3	0.897	99.7	0.454	98.9
22	LINC02898	1	0.254	86.9	1.01	74.4
23	LINC02898	2	-0.556	70.8	-0.966	102
24	LINC02898	3	-0.0565	80.8	0.553	78
25	TRIP10	1	0.457	91	-0.162	106
26	TRIP10	2	0.31	88.1	-0.058	99.9
27	TRIP10	3	-0.625	69.4	-0.803	95.9
28	RASGRP1	1	-1.27	56.7	-0.175	66.4
29	RASGRP1	2	-0.124	79.4	0.326	81.4
30	RASGRP1	3	-0.253	76.9	-0.712	104
31	ELOC	1	-1.07	60.5	-0.787	83.2
32	ELOC	2	2.24	126	1.68	90.9
33	ELOC	3	-0.9	64	-1.04	93.9
34	EFNA5	1	3.36 (active)	149	2.46	87
35	EFNA5	2	-1.39	54.2	-0.985	78.5
36	EFNA5	3	-1.89	44.3	-0.801	61.2
37	KCTD12	1	4.13 (active)	164	2.69	90.2
38	KCTD12	2	-0.153	78.8	-0.241	93.9
39	KCTD12	3	1.48	111	2.11	71.4
40	C11orf71	1	-1.23	57.4	-1.27	89.6
41	C11orf71	2	-1.06	60.8	-1.08	90.3
42	C11orf71	3	2.73	136	2.1	87.6
43	PDXP	1	4.14 (active)	164	2.73	89.3
44	PDXP	2	0.686	95.5	0.612	90.9
45	PDXP	3	-1.22	57.6	-1.67	99.9
46	MTIF2	1	0.59	93.6	-0.00766	105
47	MTIF2	2	-0.419	73.6	-0.973	106
48	MTIF2	3	2.08	123	1.63	89.7
49	LY9	1	-1.16	58.7	0.529	57.1
50	LY9	2	-0.293	76.1	0.312	78.3
51	LY9	3	1.99	121	1.03	104
52	EEF2	1	-1.71	47.9	-1.69	83.5
53	EEF2	2	-0.371	74.5	0.468	73.6
54	EEF2	3	-0.255	76.8	-0.307	93.1
55	PNMA6A	1	1.12	104	2.09	67
56	PNMA6A	2	-0.873	64.5	-0.877	90.8
57	PNMA6A	3	0.368	89.2	0.112	96.8

Active calls, of those listed so far:
gene symbol	reagent	total luciferase, z-score	total luciferase, % of control	luciferase per cell, z-score	viable cells, % of control
USP5	3	4.34 (active)	168	3.09	83.3
EFNA5	1	3.36 (active)	149	2.46	87
KCTD12	1	4.13 (active)	164	2.69	90.2
PDXP	1	4.14 (active)	164	2.73	89.3
